Results are given in words; binding and its absence hold for the method and conditions named. Some binding calls cover weakened binding; strength is not graded here. Where a sequence is shown, tags or fusion partners need not be part of it.

Test [1] concerns the target OLIG2 fluorescent protein fusion (OLIG2-eGFP; OLIG2-Tomato) (UniProt Q13516). The test is described as follows: molecular brightness (counts per second per molecule, CPM) from fluorescence autocorrelation; live HEK293 cells expressing OLIG2-eGFP; untreated or treated with 1 μM or 10 μM CT-179.
Test [2] shares this target. The test is described as follows: fluorescence cross-correlation spectroscopy (FCCS); live HEK293 cells co-transfected with OLIG2-eGFP and OLIG2-Tomato, measured in the cell nucleus; relative cross-correlation amplitude (RCA) against eGFP and Tomato alone; untreated or treated with CT-179 for 1 h at 37 °C.

B1: OLIG2 fluorescent protein fusion (OLIG2-eGFP; OLIG2-Tomato) (protein, UniProt Q13516 1-323)
chain: MDSDASLVSSRPSSPEPDDLFLPARSKGSSGSAFTGGTVSSSTPSDCPPELSAELRGAMGSAGAHPGDKLGGSGFKSSSSSTSSSTSSAAASSTKKDKKQMTEPELQQLRLKINSRERKRMHDLNIAMDGLREVMPYAHGPSVRKLSKIATLLLARNYILMLTNSLEEMKRLVSEIYGGHHAGFHPSACGGLAHSAPLPAATAHPAAAAHAAHHPAVHHPILPPAAAAAAAAAAAAAVSSASLPGSGLPSVGSIRPPHGLLKSPSAAAAAPLGGGGGGSGASGGFQHWGGMPCPCSMCQVPPPHHHVSAMGAGSLPRLTSDAK
Turning to B1, the binding entry in test [1] and in test [2] was “binds” each time.
